According to publication PMC10253763:
These are yes or no findings as the source states them, for the method shown. Binding seen in cells or lysates may run through a third protein. Some results given as binding are weak or reduced against the parent protein; the word gives no strength.

Sequences of proteins named here, by UniProt entry; tags and fusion partners are left off.
UniProt Q71RC2: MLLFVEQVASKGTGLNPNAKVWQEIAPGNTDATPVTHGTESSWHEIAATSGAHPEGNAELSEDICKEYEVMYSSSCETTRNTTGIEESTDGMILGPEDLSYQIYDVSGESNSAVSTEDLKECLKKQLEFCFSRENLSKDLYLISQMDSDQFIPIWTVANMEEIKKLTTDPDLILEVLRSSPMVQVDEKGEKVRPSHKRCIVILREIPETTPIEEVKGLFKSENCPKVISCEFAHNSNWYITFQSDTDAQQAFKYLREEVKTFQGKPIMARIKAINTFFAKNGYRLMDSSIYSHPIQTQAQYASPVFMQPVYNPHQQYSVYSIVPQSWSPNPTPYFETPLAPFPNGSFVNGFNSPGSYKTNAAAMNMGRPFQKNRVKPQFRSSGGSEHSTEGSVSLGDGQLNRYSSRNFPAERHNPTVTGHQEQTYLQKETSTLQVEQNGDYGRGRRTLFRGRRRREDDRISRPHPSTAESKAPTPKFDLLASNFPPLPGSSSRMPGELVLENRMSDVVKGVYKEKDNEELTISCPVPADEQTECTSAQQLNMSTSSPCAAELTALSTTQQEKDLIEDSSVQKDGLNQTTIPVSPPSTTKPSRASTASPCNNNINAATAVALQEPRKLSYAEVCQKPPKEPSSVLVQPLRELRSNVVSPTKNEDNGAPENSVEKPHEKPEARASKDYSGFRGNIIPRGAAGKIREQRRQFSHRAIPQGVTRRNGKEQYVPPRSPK

Target: T1, A-Kinase Anchoring Protein-1 (AKAP1) (human (endogenous in HCT116)) (UniProt Q92667)
T1 sequence: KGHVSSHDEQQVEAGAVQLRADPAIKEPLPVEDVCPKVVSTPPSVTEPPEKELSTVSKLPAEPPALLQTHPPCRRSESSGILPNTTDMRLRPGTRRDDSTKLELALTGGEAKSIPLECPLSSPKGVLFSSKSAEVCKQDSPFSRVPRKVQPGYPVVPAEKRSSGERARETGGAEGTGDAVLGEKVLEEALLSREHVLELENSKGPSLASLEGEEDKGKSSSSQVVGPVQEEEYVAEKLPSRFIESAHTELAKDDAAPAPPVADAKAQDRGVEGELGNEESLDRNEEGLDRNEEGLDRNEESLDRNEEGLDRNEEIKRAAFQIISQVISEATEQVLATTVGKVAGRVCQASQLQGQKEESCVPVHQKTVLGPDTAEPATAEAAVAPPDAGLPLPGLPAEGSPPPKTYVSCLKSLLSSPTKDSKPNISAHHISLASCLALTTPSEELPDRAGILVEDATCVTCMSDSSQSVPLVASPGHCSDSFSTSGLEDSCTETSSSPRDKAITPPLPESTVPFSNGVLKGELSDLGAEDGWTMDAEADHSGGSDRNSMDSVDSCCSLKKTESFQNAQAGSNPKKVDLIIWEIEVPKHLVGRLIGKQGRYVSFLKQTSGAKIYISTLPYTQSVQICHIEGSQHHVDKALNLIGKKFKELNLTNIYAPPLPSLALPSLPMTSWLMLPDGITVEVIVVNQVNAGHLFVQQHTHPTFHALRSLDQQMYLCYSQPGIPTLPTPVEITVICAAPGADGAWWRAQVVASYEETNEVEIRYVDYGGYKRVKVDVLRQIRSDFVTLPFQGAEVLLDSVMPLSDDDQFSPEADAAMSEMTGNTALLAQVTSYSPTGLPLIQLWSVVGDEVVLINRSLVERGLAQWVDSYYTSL
Test: co-IP; HCT116 lysate in RIPA buffer; 1 mg of proteins on magnetic beads coupled or not with 5 µg of AKAP1 antibody; 16 h at 4 °C; AKAP1 and LARP4 revealed by Western blot

binding: binds
Substance: La Ribonucleoprotein 4 (LARP4) (from UniProt Q71RC2 1-724)
